Experimental data from PubChem BioAssay AID264 (DTP/NCI, 2004).
The list is a part of this screen's results and no random one: it is rich in T/C values a quarter to a half above the control, in often repeated tests (any T/C) and in doses without a T/C. Other doses and runs of a compound stand elsewhere. T/C gives the treated animals as a percentage of the vehicle group. Schedule codes are those of the source, read here as Q, the interval in days (D) or hours (H), X, the number of doses. Some T/C values carry the count of animals alive at the toxicity check (mostly the fifth day); where none is given, no animal had died by that day. Some doses were run more than once; the results are listed from low to high. Some entries give survivors of the animals treated and no T/C: the source holds a T/C of zero for them, seemingly a mark for toxic or unscored doses. Survivors were counted at the toxicity check, usually on the fifth day, unless a day is given; later deaths do not show. Some structures stand for samples that the source files as different forms (salt, stereo form or complex); doses refer to the form tested.

Test system: nude mice, LX-1 lung xenograft intrarenal, tumor weight T/C
Assay: NCI In Vivo Anticancer Drug Screen. Data for tumor model Human Lung LX-1 Xenograft (intrarenal inoculation) in NU/NU Swiss (nude) mice
Conditions: T/C endpoint: mean tumor weight change, higher T/C = larger tumour; for T/C: evaluated on day 11
Outline: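 Readout: T/C, i.e. treated-group tumor measurement over vehicle-control measurement. Mice bearing transplantable tumors were dosed with compound or vehicle.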

[1] = dose: 100.0 mg/kg/injection, schedule: Q04DX003 (sc), vehicle: suspension in saline
[2] = dose: 200.0 mg/kg/injection, schedule: Q04DX003 (sc), vehicle: suspension in saline
[3] = dose: 400.0 mg/kg/injection, schedule: Q04DX003 (sc), vehicle: suspension in saline
[4] = dose: 100.0 mg/kg/injection, schedule: Q01DX010 (sc), vehicle: saline
[5] = dose: 300.0 mg/kg/injection, schedule: Q04DX003 (sc), vehicle: saline
[6] = dose: 600.0 mg/kg/injection, schedule: Q04DX003 (sc), vehicle: saline
[7] = dose: 600.0 mg/kg/injection, schedule: Q04DX003 (sc), vehicle: water

Question: `[Cl][Pt+2][Cl].[NH-]CC1(C[NH-])CCC1` was tested. Which survivor count [1] did it give?
Answer: 0 of 6 on day 11

Question: And the survivor count [2]?
Answer: 0 of 6 on day 11

Question: What about the survivor count [3] of the same compound?
Answer: 0 of 6 on day 11

Question: How did the T/C (dose: 12.5 mg/kg/injection, schedule: Q01DX010 (sc), vehicle: saline with Tween-80) turn out when `Cc1cc(N(CC(C)Br)CC(C)Br)ccc1N=Nc1ccccc1C(=O)O` (centres undefined) was run?
Answer: 138 % of control [2 of 3 alive on day 11]

Question: And the survivor count (dose: 25.0 mg/kg/injection, schedule: Q01DX010 (sc), vehicle: saline with Tween-80)?
Answer: 0 of 3 on day 11

Question: Which T/C (dose: 12.5 mg/kg/injection, schedule: Q01DX010 (sc), vehicle: saline) does the source give for `O=P1(N(CCCl)CCCl)NCCCO1` (centres undefined) here?
Answer: 54, 63, 73, 94 % of control [2 of 2 alive on day 11]

Question: What about the T/C (dose: 25.0 mg/kg/injection, schedule: Q01DX010 (sc), vehicle: saline) of the same compound?
Answer: 42 [2 of 2 alive on day 11], 45, 49, 70 % of control

Question: What about the survivor count (dose: 50.0 mg/kg/injection, schedule: Q01DX010 (ip), vehicle: saline) of the same compound?
Answer: 0 of 3 on day 11

Question: What about the T/C (dose: 50.0 mg/kg/injection, schedule: Q01DX010 (sc), vehicle: saline) of the same compound?
Answer: 15 [2 of 3 alive on day 11], 26, 36, 41 % of control

Question: What about the survivor count (dose: 83.33 mg/kg/injection, schedule: Q04DX003 (ip), vehicle: saline) of the same compound?
Answer: 0 of 3 on day 11

Question: What about the T/C [4] of the same compound?
Answer: 13 and 23 % of control [2 of 3 alive on day 11]

Question: And the survivor count [4]?
Answer: 0 of 3 on day 11

Question: What about the survivor count (dose: 166.6 mg/kg/injection, schedule: Q04DX003 (sc), vehicle: saline) of the same compound?
Answer: 0 of 3 on day 11

Question: What about the survivor count (dose: 166.65 mg/kg/injection, schedule: Q04DX003 (ip), vehicle: saline) of the same compound?
Answer: 0 of 3 on day 11

Question: What about the survivor count [2] of the same compound?
Answer: 0 of 6 on day 11

Question: And the survivor count (dose: 333.3 mg/kg/injection, schedule: Q04DX003 (sc), vehicle: saline)?
Answer: 0 of 3 on day 11

Question: What about the survivor count [3] of the same compound?
Answer: 0 of 6 on day 11

Question: For `COc1ccc(-c2cc(C(=O)Nc3cc(C(F)(F)F)cc(C(F)(F)F)c3)c3ccccc3n2)cc1`, which survivor count (dose: 1200.0 mg/kg/injection, schedule: Q04DX003 (ip), vehicle: DMSO) is on record?
Answer: 3 of 6 on day 11

Question: `BrC[P+](CBr)(CBr)CBr` was tested. Which T/C (dose: 100.0 mg/kg/injection, schedule: Q04DX003 (sc), vehicle: saline with Tween-80) did it give?
Answer: 130 % of control

Question: What about the T/C (dose: 200.0 mg/kg/injection, schedule: Q04DX003 (sc), vehicle: saline with Tween-80) of the same compound?
Answer: 132 % of control

Question: And the survivor count (dose: 800.0 mg/kg/injection, schedule: Q04DX003 (sc), vehicle: saline with Tween-80)?
Answer: 0 of 6 on day 11

Question: What does the source list for `O=C1C(O)=C(c2ccccc2)C(=O)C(O)=C1c1ccccc1`?
Answer: survivor count [5]: 1 of 6 on day 11; survivor count [6]: 0 of 6 on day 11

Question: With `ClCC[N+]12CC[N+](CCCl)(CC1)C2` as the compound, how does the survivor count (dose: 400.0 mg/kg/injection, schedule: Q01DX010 (sc), vehicle: saline with Tween-80) read?
Answer: 1 of 3 on day 11

Question: What about the survivor count [7] of the same compound?
Answer: 3 of 6 on day 11

Question: And the survivor count (dose: 1200.0 mg/kg/injection, schedule: Q04DX003 (sc), vehicle: water)?
Answer: 0 of 6 on day 11

Question: And the survivor count (dose: 2400.0 mg/kg/injection, schedule: Q04DX003 (sc), vehicle: water)?
Answer: 0 of 6 on day 11

Question: For `CCN=C=NCCCN(C)C`, which survivor count (dose: 200.0 mg/kg/injection, schedule: Q04DX003 (sc), vehicle: saline) is on record?
Answer: 0 of 6 on day 11

Question: How did the survivor count [5] turn out when `O=P1(NCCCl)OCCCN1CCCl` (centres undefined) was run?
Answer: 3 of 6 on day 11

Question: What about the survivor count [6] of the same compound?
Answer: 0 of 6 on day 11

Question: Which results are given for `CCCNC1=C(C)C(=O)C2=C(C1=O)[C@H](COC(N)=O)[C@]1(OC)[C@@H]3N[C@@H]3CN21`?
Answer: T/C (dose: 6.0 mg/kg/injection, schedule: Q04DX003 (sc), vehicle: suspension in saline): 127 % of control; survivor count (dose: 48.0 mg/kg/injection, schedule: Q04DX003 (sc), vehicle: suspension in saline): 0 of 6 on day 11 and 3 of 5 on day 11

Question: Which results are given for `CNc1n[n+](-c2ccccc2)no1`?
Answer: T/C (dose: 18.75 mg/kg/injection, schedule: Q04DX003 (sc), vehicle: water): 126 % of control; survivor count (dose: 150.0 mg/kg/injection, schedule: Q04DX003 (sc), vehicle: water): 2 of 6 on day 11

Question: Which survivor count (dose: 600.0 mg/kg/injection, schedule: Q04DX003 (sc), vehicle: saline with Tween-80) does the source give for `CN(C)C1C(=O)C(C(=O)NP(=O)(NCCCO)N(CCCl)CCCl)=C(O)C2(O)C(=O)C3=C(O)c4c(O)cccc4C(C)(O)C3CC12` (centres undefined) here?
Answer: 1 of 6 on day 11

Question: And the survivor count (dose: 1200.0 mg/kg/injection, schedule: Q04DX003 (sc), vehicle: saline with Tween-80)?
Answer: 0 of 6 on day 11

Question: And the survivor count (dose: 2400.0 mg/kg/injection, schedule: Q04DX003 (sc), vehicle: saline with Tween-80)?
Answer: 0 of 6 on day 11

Question: For `CS(=O)(=O)OCCCCOS(C)(=O)=O`, which survivor count (dose: 50.0 mg/kg/injection, schedule: Q01DX010 (sc), vehicle: saline with Tween-80) is on record?
Answer: 0 of 3 on day 11

Question: What about the survivor count (dose: 100.0 mg/kg/injection, schedule: Q01DX010 (sc), vehicle: saline with Tween-80) of the same compound?
Answer: 0 of 3 on day 11

Question: And the survivor count (dose: 200.0 mg/kg/injection, schedule: Q01DX010 (sc), vehicle: saline with Tween-80)?
Answer: 0 of 3 on day 11

Question: With `O=C1OC(=O)[C@H]2[C@@H]1[C@H]1C=C[C@@H]2OC1=O` as the compound, how does the T/C (dose: 150.0 mg/kg/injection, schedule: Q04DX003 (sc), vehicle: suspension in saline) read?
Answer: 131 % of control

Question: Which survivor count (dose: 200.0 mg/kg/injection, schedule: Q04DX003 (sc), vehicle: Klucel (hydroxypropylcellulose) (HPC)) does the source give for `COC1=C(NC(C)=O)C(=O)c2nc(-c3nc(C(=O)O)c(C)c(-c4ccc(OC)c(OC)c4O)c3N)ccc2C1=O` here?
Answer: 3 of 5 on day 11

Question: `Cc1ccc(S(=O)(=O)N/N=C/C(Br)=C(/Br)C(=O)O)cc1` was tested. Which survivor count (dose: 1200.0 mg/kg/injection, schedule: Q04DX003 (sc), vehicle: Klucel (hydroxypropylcellulose) (HPC)) did it give?
Answer: 0 of 6 on day 11

Question: For `CNC(=O)OCc1c(COC(=O)NC)c(C)n(-c2ccc(OC)cc2)c1C`, which survivor count (dose: 800.0 mg/kg/injection, schedule: Q01DX010 (sc), vehicle: Klucel (hydroxypropylcellulose) (HPC)) is on record?
Answer: 0 of 6 on day 11

Question: How did the survivor count (dose: 16.0 mg/kg/injection, schedule: Q01DX010 (sc), vehicle: saline) turn out when `C1OC1CN1CCN(CC2CO2)CC1` (centres undefined) was run?
Answer: 0 of 3 on day 11

Question: And the survivor count (dose: 32.0 mg/kg/injection, schedule: Q01DX010 (sc), vehicle: saline)?
Answer: 0 of 3 on day 11

Question: And the survivor count (dose: 64.0 mg/kg/injection, schedule: Q01DX010 (sc), vehicle: saline)?
Answer: 0 of 3 on day 11

Question: Which results are given for `[Cl][Pt+2][Cl].[NH-]C1CCC1.[NH2-]`?
Answer: T/C (dose: 25.0 mg/kg/injection, schedule: Q04DX003 (sc), vehicle: suspension in saline): 136 % of control; survivor count (dose: 50.0 mg/kg/injection, schedule: Q04DX003 (sc), vehicle: suspension in saline): 2 of 6 on day 11; survivor count [1]: 0 of 6 on day 11

Question: `COC1=NCN=C2SC=C(N)N=C12` was tested. Which T/C (dose: 75.0 mg/kg/injection, schedule: Q04DX003 (sc), vehicle: suspension in saline) did it give?
Answer: 147 % of control

Question: What about the survivor count (dose: 300.0 mg/kg/injection, schedule: Q04DX003 (sc), vehicle: suspension in saline) of the same compound?
Answer: 0 of 6 on day 11

Question: And the survivor count (dose: 600.0 mg/kg/injection, schedule: Q04DX003 (sc), vehicle: suspension in saline)?
Answer: 0 of 6 on day 11

Question: With `O=C1OC(C(O)CO)C(O)=C1O` (centres undefined) as the compound, how does the survivor count (dose: 3200.0 mg/kg/injection, schedule: Q01DX010 (sc), vehicle: saline) read?
Answer: 0 of 3 on day 11

Question: Which results are given for `CN(C)CC(Cl)CCl` (centres undefined)?
Answer: survivor count [6]: 1 of 6 on day 11; survivor count (dose: 1200.0 mg/kg/injection, schedule: Q04DX003 (sc), vehicle: saline): 0 of 6 on day 11; survivor count (dose: 2400.0 mg/kg/injection, schedule: Q04DX003 (sc), vehicle: saline): 0 of 6 on day 11

Question: Which survivor count (dose: 300.0 mg/kg/injection, schedule: Q04DX003 (sc), vehicle: water) does the source give for `O=C(O)C1CC(c2ccccc2)=NN1c1ccccc1` (centres undefined) here?
Answer: 3 of 6 on day 11

Question: What about the survivor count [7] of the same compound?
Answer: 1 of 6 on day 11
